Assay results reported in PMC8805147.
These are yes or no findings as the source states them, for the method shown. Some results given as binding are weak or reduced against the parent protein; the word gives no strength.

Chains of the proteins cited; added tags and fusions are not shown. Residues count along the entry.
UniProt P41317, residues 19-244: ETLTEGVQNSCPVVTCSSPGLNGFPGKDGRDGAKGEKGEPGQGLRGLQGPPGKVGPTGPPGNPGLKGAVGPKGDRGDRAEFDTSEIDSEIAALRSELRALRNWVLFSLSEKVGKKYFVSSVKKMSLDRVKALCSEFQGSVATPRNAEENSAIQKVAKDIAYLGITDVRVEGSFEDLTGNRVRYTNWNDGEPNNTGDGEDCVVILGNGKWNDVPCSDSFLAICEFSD
UniProt P03101: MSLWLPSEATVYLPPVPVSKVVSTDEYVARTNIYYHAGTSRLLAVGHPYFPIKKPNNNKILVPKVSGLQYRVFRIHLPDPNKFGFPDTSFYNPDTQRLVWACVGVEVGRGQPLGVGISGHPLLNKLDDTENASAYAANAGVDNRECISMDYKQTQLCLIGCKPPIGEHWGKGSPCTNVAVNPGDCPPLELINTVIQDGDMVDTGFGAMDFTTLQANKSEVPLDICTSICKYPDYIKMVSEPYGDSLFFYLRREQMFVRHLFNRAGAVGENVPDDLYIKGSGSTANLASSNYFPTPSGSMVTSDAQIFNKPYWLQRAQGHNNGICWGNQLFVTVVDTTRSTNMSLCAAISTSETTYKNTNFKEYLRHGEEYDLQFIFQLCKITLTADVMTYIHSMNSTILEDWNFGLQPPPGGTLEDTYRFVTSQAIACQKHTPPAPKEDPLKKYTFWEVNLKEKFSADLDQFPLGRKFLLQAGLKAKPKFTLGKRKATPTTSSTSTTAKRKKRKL

Target: recombinant murine MBL2 (mannose-binding lectin), biotinylated (mouse) (UniProt P41317)
Test: BLI; biotinylated murine MBL2 (1 ug/mL) loaded on streptavidin sensors; dilutions of antigen formulations in solution; PBS with 1% BSA and 0.1 M CaCl; Octet RED96; both purified

For “human papillomavirus 16 L1 virus-like particles (HPV16 L1), unmodified (from UniProt P03101 1-505)”, the binding was “binds”.
